Test results as given in US12698473B2, “Cell-containing structure” (Ricoh Company, Ltd., priority 2021, dated 2026).
Some of these results come from one statement about several compounds together. For at least one compound, name, drawing or mass did not settle the structure.

Tested on: cultured product composed of cell masses containing hiPSC-Neuron and astrocytes derived from a human fetus
Test: Evaluation of electrophysiological neurotoxicity of test compound: firing frequency response on MEA plate
Type: cell-based
Conditions: spontaneous firing frequency before exposure 4 Hz or more and less than 100 Hz per 16 electrodes; FIG. 10
Method: A multi-electrode array (MEA) plate was prepared as a cell-containing container which is a cell-containing structure of the present embodiment.
As a plate used for the MEA plate, CytoView MEA Plate (commercially available from Axion Biosystems) having 6×8 wells (a total of 48 wells) and a micro electrode array on the well bottom was used. […]
In the main test, the action potential of neurons adhered onto a micro electrode 3 arranged on the well bottom as shown in FIG. 1 was measured as an extracellular potential, and the neurotoxicity was evaluated from the change in extracellular potential when the test compound was treated. […]
That is, using maestro Pro (commercially available from Axion Biosystems), for the prepared MEA Cytoview Plate (commercially available from Axion Biosystems), the results of the extracellular potential of the cultured product 2 composed of cell masses containing hiPSC-Neuron and astrocytes derived from a human fetus, which were adhered to the well bottom 1 shown in FIG. 1 and FIG. 2, measured using maestro Pro for 10 minutes are illustrated as a raster plot 6 of FIG. 3 and a graph 7 of the number of detected spikes. […] The spontaneous firing frequency (Hz) can be detected from the number of peaks in the graph […]. […]

## Nc1ccncc1 [4-AP]
  response rate to the test compound (firing frequency after exposure): ≥ 4 times
